The experiment deals with FLAG-WT-PRMT5 (protein arginine methyltransferase 5, wild type) (human) (UniProt O14744). The experiment is described as follows: affinity purification with mass spectrometry; mass spectrometry identification of kinases immunoprecipitated with WT-PRMT5.

By UniProt entry, the sequences of proteins in these tests, tags left out.
UniProt O14744: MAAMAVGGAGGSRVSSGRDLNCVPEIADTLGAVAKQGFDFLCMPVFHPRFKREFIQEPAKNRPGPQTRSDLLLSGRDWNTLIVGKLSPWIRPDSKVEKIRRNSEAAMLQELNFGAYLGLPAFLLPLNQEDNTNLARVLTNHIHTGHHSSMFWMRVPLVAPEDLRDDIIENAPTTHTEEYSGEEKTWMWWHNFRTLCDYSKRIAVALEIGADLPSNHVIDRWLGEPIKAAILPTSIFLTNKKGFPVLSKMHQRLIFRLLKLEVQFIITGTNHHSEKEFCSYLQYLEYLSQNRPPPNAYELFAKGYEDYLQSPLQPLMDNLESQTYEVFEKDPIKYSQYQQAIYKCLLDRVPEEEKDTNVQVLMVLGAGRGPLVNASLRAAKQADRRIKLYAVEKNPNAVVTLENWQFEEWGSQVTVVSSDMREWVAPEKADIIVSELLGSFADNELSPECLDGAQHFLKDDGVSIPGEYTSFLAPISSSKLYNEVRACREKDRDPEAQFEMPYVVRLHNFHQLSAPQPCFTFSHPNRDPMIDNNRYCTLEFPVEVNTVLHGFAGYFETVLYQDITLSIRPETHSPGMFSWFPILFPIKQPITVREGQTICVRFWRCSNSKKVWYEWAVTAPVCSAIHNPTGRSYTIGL

These are yes or no findings as the source states them, for the method shown. In cells and extracts the contact can be indirect. Here binding means that the protein was enriched with, or labelled near, the bait; the list need not be complete.

B1: PKCι (enzyme, UniProt P41743 1-596)
chain: MPTQRDSSTMSHTVAGGGSGDHSHQVRVKAYYRGDIMITHFEPSISFEGLCNEVRDMCSFDNEQLFTMKWIDEEGDPCTVSSQLELEEAFRLYELNKDSELLIHVFPCVPERPGMPCPGEDKSIYRRGARRWRKLYCANGHTFQAKRFNRRAHCAICTDRIWGLGRQGYKCINCKLLVHKKCHKLVTIECGRHSLPQEPVMPMDQSSMHSDHAQTVIPYNPSSHESLDQVGEEKEAMNTRESGKASSSLGLQDFDLLRVIGRGSYAKVLLVRLKKTDRIYAMKVVKKELVNDDEDIDWVQTEKHVFEQASNHPFLVGLHSCFQTESRLFFVIEYVNGGDLMFHMQRQRKLPEEHARFYSAEISLALNYLHERGIIYRDLKLDNVLLDSEGHIKLTDYGMCKEGLRPGDTTSTFCGTPNYIAPEILRGEDYGFSVDWWALGVLMFEMMAGRSPFDIVGSSDNPDQNTEDYLFQVILEKQIRIPRSLSVKAASVLKSFLNKDPKERLGCHPQTGFADIQGHPFFRNVDWDMMEQKQVVPPFKPNISGEFGLDNFDSQFTNEPVQLTPDDDDIVRKIDQSEFEGFEYINPLLMSAEECV
As to B1, the binding entry was “binds”.
